This passage reports binding results from paper PMC9729029.

Protein sequences, listed by entry. Tags and fused reporters are not part of them.
UniProt Q9EPK5: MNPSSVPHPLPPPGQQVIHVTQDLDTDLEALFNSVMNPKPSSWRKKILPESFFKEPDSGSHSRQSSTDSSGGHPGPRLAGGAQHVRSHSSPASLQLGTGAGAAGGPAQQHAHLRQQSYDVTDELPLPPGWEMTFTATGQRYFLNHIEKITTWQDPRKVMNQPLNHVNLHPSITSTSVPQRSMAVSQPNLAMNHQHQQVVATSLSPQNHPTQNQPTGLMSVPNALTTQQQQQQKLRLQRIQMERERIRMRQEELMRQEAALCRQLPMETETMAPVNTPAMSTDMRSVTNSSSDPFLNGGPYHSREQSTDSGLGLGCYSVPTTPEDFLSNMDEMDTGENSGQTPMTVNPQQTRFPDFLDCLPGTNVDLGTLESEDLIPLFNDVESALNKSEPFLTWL

These are yes or no findings as the source states them, for the method shown. Binding seen in cells or lysates may run through a third protein. Some results given as binding are weak or reduced against the parent protein; the word gives no strength.

In experiment [1] the target is T1, Never-in-mitosis A-related kinase 8 (NEK8) (UniProt Q91ZR4).
T1 sequence: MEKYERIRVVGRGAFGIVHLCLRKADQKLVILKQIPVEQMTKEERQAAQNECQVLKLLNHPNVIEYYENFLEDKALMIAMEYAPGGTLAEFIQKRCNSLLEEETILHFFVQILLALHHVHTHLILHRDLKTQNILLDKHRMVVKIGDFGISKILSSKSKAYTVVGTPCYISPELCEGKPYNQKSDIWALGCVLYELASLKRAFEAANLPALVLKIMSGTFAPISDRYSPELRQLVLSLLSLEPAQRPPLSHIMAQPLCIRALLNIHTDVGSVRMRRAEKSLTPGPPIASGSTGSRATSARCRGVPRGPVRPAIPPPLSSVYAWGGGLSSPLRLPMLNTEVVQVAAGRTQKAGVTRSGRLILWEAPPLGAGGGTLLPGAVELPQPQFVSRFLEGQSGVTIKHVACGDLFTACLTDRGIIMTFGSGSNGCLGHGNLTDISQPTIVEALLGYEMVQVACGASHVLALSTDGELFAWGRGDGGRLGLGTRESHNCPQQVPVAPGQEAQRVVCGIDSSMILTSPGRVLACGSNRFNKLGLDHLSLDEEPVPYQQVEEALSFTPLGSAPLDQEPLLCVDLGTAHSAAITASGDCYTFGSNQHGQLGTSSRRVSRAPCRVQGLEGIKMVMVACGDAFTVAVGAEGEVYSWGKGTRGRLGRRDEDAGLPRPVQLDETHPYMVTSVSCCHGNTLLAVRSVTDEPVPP
In words: co-IP; lysate (RIPA buffer) of 3T3-L1 cells transfected with the NEK8 overexpression plasmid; 1 ug antibody against NEK8 or TAZ in 200 uL lysate, 4°C, 2 h; agarose A/G; rabbit IgG as negative control; western blot. For orientation: Immunoblotting shows a protein as a band on a membrane.

For experiment [2], the target named is TAZ (Tafazzin, an oncogenic transcriptional regulator; also called WWTR1) (mouse (endogenous in 3T3-L1)) (UniProt Q9EPK5). The description is as above.

Turning to “TAZ (Tafazzin, an oncogenic transcriptional regulator; also called WWTR1) (from UniProt Q9EPK5 1-395)”, the binding entry in experiment [1] is recorded as “binds”.

B1: Never-in-mitosis A-related kinase 8 (NEK8) (enzyme, UniProt Q91ZR4 1-698)
chain: T1 sequence
With B1, in experiment [2], the binding result is recorded as “binds”.
